According to paper PMC2438350, “Comparison of four different colorimetric and fluorometric cytotoxicity assays in a zebrafish liver cell line” (BMC Pharmacology, 2008):

Tested on: ZFL cells
Test: LDH assay (released lactate dehydrogenase activity), cytotoxicity
Type: cell-based, zebrafish (Danio rerio)
Details: Danio rerio, read-out: EC50 (50% loss of cell viability), 24 h exposure, 1% FBS, mean ± SD of three experiments
Experimental: Each compound was dissolved in dimethyl sulfoxide (DMSO) and diluted in a way that all stock solutions were 200 times concentrated compared to the final test concentrations. Concentration ranges were 30 pM-1.97 μM for BaP, 5 nM-5 μM for Flus, 5 nM-11 μM for Tam, and 0.2–43 μM for 4-OHT, which is in the range of in vivo studies with waterborne exposure of zebrafish for BaP, Tam, and 4-OHT [20-22, 29]. For Flusilazole, no studies on fish are available.
For finding the optimal biological test conditions, in the beginning different cell densities were applied using two-fold dilution series in the range of 780–100,000 cells/well and cell viability tests were performed after 24 h. […]
A second set of cells was exposed to the test compounds for the LDH assay, which was performed using the Cytotoxicity Detection Kit LDH (Roche). […] 100 μL of the reaction solution from the kit, containing the detection dye and the catalyst were then added and absorption was measured after 30 min at 490 nm with 655 nm as reference wavelength in an ELISA reader (Model 680, Biorad). As for the other assays, background values from wells without cells were subtracted and average values for the triplicates calculated. Cytotoxicity was then calculated according to the following equation: Cytotoxicity (%) = (experimental value - DMSO control)/(positive control - DMSO control) × 100. […]

CC/C(=C(\c1ccccc1)c1ccc(OCCN(C)C)cc1)c1ccccc1 [Tamoxifen]
EC50: 1880 ± 1010 nM
